Assay results reported in the supplement of paper PMC10849652.
Some of the results follow.

By UniProt entry, the sequences of proteins in these tests, tags left out. Where a name states a change or a piece, a line headed by the entry shows the natural chain unless it says otherwise.
UniProt Q86WA6: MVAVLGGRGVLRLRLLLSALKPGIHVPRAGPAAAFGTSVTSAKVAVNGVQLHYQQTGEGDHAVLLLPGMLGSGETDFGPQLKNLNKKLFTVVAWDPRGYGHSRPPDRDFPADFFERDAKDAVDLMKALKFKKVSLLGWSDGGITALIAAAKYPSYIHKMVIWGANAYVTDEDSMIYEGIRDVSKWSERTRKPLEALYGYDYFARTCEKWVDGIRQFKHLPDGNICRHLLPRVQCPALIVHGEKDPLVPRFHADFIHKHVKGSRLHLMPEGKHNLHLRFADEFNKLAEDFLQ
UniProt O15382: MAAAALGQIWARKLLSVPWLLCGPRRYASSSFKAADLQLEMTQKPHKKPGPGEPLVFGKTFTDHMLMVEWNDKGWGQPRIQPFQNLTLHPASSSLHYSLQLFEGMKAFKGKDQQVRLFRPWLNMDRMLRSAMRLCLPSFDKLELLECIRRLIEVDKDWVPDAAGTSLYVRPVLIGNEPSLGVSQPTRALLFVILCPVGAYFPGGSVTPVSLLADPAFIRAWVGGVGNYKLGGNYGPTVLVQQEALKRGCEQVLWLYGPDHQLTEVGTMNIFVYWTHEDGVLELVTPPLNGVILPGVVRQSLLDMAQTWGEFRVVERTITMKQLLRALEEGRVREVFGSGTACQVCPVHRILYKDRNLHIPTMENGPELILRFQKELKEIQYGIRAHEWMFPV
UniProt O60512: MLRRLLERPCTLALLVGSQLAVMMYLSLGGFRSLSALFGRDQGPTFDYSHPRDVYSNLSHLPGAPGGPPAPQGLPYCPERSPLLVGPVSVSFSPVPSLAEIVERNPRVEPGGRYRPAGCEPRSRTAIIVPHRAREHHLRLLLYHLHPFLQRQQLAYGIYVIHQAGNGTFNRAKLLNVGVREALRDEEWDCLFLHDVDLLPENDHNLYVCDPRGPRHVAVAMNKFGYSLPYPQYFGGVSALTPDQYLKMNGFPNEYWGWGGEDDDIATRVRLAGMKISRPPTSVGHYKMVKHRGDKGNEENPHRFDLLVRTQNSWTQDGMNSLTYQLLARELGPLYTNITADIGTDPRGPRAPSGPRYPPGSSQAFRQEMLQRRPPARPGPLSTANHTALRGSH
UniProt P53004: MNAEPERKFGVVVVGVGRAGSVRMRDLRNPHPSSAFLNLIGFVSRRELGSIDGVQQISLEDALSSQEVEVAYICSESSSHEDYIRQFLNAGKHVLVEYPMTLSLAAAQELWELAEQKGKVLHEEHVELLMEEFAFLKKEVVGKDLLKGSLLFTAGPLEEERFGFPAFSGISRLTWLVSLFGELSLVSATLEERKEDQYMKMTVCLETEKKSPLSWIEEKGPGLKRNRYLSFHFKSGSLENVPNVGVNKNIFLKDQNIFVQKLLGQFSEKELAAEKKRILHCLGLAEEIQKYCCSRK
UniProt Q9NYM9: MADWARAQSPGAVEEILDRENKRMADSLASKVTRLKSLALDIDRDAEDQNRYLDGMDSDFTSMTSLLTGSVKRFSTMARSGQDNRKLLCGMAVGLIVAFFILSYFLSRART
UniProt P21953: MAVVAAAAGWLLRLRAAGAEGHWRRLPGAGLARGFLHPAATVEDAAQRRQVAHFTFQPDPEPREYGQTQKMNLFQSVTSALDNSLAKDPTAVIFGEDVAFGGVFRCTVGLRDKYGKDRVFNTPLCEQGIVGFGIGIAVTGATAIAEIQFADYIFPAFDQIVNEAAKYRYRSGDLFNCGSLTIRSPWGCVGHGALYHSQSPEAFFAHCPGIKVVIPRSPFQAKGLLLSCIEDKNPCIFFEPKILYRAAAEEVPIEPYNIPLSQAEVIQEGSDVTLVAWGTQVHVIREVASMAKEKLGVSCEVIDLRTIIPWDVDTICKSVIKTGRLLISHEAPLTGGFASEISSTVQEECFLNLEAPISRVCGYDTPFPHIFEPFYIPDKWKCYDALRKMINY
UniProt Q9HB09: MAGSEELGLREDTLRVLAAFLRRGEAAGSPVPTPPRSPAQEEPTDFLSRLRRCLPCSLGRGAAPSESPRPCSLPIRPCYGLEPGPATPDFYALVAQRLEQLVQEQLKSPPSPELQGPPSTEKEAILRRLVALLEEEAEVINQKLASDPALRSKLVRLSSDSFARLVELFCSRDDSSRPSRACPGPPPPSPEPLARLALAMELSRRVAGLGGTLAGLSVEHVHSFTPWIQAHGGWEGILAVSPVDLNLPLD
UniProt P55957: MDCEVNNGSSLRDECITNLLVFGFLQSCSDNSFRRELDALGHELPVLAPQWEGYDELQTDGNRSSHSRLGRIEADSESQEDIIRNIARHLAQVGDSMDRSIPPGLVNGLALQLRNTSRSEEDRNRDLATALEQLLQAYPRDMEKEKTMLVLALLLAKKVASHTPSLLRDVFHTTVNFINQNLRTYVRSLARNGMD
UniProt Q12981: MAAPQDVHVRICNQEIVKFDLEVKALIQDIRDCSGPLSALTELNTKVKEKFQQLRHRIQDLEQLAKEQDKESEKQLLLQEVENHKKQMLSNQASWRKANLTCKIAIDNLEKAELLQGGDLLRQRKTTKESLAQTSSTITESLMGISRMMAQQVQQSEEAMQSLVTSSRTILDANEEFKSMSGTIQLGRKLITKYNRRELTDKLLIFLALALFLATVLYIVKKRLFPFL
UniProt Q6PJG6: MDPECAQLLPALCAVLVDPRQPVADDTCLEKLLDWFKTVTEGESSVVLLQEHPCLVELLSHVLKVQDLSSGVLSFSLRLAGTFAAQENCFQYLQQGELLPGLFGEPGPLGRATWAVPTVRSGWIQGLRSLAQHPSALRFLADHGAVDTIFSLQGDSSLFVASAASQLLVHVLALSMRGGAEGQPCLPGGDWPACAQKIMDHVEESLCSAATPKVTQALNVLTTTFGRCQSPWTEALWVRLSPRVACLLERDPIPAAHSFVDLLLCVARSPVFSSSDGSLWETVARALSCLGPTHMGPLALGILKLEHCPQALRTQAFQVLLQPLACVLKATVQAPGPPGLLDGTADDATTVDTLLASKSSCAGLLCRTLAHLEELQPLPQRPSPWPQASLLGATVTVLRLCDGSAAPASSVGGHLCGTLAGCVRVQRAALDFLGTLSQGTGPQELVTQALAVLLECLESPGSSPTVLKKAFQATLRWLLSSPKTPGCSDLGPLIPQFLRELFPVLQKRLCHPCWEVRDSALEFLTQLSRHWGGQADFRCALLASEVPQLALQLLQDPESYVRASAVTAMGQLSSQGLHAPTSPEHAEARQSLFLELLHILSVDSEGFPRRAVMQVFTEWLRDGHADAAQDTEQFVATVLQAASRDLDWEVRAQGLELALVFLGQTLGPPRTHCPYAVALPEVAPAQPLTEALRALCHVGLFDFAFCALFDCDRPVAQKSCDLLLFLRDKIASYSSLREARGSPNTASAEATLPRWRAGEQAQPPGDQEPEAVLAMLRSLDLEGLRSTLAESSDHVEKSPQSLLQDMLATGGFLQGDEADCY
UniProt Q9BX63: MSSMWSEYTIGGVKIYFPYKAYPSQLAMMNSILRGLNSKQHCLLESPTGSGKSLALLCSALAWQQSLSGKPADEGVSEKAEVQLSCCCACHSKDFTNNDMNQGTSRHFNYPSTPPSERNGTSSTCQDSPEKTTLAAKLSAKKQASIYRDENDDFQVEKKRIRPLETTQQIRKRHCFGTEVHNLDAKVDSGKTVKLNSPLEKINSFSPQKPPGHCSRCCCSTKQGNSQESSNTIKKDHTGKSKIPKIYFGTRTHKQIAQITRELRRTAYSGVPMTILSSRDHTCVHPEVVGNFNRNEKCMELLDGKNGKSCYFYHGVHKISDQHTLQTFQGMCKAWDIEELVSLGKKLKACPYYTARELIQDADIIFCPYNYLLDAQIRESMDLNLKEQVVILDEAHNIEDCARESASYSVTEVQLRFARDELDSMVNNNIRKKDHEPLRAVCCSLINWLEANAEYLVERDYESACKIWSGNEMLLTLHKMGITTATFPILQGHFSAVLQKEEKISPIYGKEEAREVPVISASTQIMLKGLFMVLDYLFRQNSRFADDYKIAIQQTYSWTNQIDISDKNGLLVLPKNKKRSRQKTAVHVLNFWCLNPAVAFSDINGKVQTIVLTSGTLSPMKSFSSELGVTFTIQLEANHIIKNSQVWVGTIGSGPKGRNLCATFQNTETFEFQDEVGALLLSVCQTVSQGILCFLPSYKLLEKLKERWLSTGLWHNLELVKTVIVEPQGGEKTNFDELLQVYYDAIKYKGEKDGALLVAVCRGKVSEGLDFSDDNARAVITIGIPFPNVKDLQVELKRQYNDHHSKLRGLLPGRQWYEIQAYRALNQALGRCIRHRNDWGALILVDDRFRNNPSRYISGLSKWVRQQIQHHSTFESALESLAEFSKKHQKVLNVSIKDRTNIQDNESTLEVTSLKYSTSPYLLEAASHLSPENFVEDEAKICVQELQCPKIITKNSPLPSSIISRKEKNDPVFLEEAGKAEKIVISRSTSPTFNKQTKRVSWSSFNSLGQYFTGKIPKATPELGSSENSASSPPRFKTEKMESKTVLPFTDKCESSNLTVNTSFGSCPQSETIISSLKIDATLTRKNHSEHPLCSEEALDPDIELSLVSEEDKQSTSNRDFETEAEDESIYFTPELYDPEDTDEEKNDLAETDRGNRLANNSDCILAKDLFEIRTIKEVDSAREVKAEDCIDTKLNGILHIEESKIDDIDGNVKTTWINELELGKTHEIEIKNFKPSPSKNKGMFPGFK
UniProt Q8NBF6: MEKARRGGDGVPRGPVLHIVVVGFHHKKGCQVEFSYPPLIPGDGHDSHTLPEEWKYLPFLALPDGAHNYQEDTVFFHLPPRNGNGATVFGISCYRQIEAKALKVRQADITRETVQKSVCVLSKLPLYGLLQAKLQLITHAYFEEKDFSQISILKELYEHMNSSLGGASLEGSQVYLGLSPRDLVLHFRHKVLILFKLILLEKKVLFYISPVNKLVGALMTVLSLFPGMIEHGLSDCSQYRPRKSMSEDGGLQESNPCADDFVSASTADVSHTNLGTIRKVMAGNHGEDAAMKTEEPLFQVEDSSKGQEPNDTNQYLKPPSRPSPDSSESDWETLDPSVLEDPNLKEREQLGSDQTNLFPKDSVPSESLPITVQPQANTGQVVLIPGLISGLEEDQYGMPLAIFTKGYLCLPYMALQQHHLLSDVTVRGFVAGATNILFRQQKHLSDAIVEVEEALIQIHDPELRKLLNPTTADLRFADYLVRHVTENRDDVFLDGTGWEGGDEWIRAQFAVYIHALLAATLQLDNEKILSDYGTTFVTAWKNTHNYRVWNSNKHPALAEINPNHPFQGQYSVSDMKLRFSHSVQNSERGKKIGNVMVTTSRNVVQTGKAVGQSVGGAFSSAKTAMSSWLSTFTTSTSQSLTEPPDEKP

Key:
Assay in all cases: log2 fold change, soluble protein after heating vs DMSO (PISA); higher = thermal stabilisation; K562 cells, 10 uM, 30 min; active = over 0.2 and 3.5 SD of the protein, either way, in both replicates (recomputed)
[1] = compound: CC[C@@H]1C(=O)N(C)c2cnc(Nc3ccc(C(=O)NC4CCN(C)CC4)cc3OC)nc2N1C1CCCC1
Summary of the method: (§1)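 Thermal stability values are relative to control samples and come from duplicates. They are expressed as log2 fold changes. For measurement, K562 cells (2×10^6 cells/mL) received 10 μM compound for 30 min, and aliquots were heated for 3 min over 48°C-58°C, pooled, and extracted at 4°C in PBS with 0.5% NP-40. Soluble protein, the supernatant after 21,000xg for 90 min, was quantified by TMTpro 16plex LC-MS/MS with equalised channel sums.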

volasertib = compound: CC[C@@H]1C(=O)N(C)c2cnc(Nc3ccc(C(=O)N[C@H]4CC[C@H](N5CCN(CC6CC6)CC5)CC4)cc3OC)nc2N1C(C)C [volasertib]
Summary of the method: as §1

[2] = compound: CC[C@H](C)N1C=C(C2=C(C=C(C=C21)C3=CN=C(C=C3)N4CCNCC4)C(=O)NCC5=C(C=C(NC5=O)C)C)C
Summary of the method: as §1

epoxomicin = compound: CC[C@H](C)[C@@H](C(=O)N[C@@H]([C@@H](C)O)C(=O)N[C@@H](CC(C)C)C(=O)[C@]1(CO1)C)NC(=O)[C@H]([C@@H](C)CC)N(C)C(=O)C [epoxomicin]
Summary of the method: as §1

[3] = compound: CCn1cc(-c2ccnc3[nH]c(-c4cccc(CN(C)C)c4)cc23)c(-c2ccc(NC(=O)N(C)C)cc2)n1
Summary of the method: as §1

[4] = compound: CN(C)CC(=O)Nc1ccc2[nH]c(=O)c3ccccc3c2c1
Summary of the method: as §1

[5] = compound: CN1C2=C(C3=C1C(=O)N(N=C3)CC4=CC(=CC=C4)N)SC(=C2)S(=O)C
Summary of the method: as §1

[6] = compound: CN1CCC(CNc2ccc3ncc(-c4cccc(OC(F)(F)F)c4)n3n2)CC1
Summary of the method: as §1

[7] = compound: CCn1c(C(=O)N(C2CC2)C2CC2)cc2c3c(ncn3C)c(Nc3cc(C)n(C)n3)nc21
Summary of the method: as §1

rosiglitazone = compound: CN(CCOC1=CC=C(C=C1)C[C@H]2C(=O)NC(=O)S2)C3=CC=CC=N3 (racemic) [rosiglitazone]
Summary of the method: as §1

Measured: log2 fold change

BPHL (UniProt Q86WA6)
inactive: [1] 0.013 | volasertib -0.005 | [2] 0.065 | epoxomicin 0.005 | [3] -0.017 | [4] -0.07 | [5] 0.017 | [6] 0.063

BCAT2 (UniProt O15382)
inactive: [1] 0.005 | volasertib 0.06 | [2] 0.001 | epoxomicin 0.009 | [7] -0.009 | [3] 0.009 | [4] -0.017 | rosiglitazone 0 | [5] 0.015 | [6] 0.027

B4GALT3 (UniProt O60512)
inactive: [1] -0.023 | volasertib -0.067 | [2] 0.134 | epoxomicin -0.056 | [7] 0.124 | [3] 0.033 | [4] -0.02 | rosiglitazone 0.092 | [5] -0.03 | [6] 0.01

BLVRA (UniProt P53004)
inactive: [1] 0.014 | volasertib 0.029 | [2] 0.026 | epoxomicin 0.018 | [7] 0.032 | [3] -0.111 | [4] 0.007 | rosiglitazone 0.047 | [5] -0.092 | [6] -0.141

BET1L (UniProt Q9NYM9)
inactive: [1] 0 | volasertib -0.009 | [2] -0.022 | epoxomicin 0.08 | [7] 0.02 | [4] 0.008 | [5] -0.181

BCKDHB (UniProt P21953)
inactive: [1] -0.251 | volasertib -0.079 | [2] -0.068 | epoxomicin -0.054 | [7] 0.003 | [3] -0.139 | [4] -0.039 | rosiglitazone 0.117 | [5] 0.003 | [6] -0.108

BCL2L12 (UniProt Q9HB09)
inactive: [1] -0.029 | volasertib -0.378 | [2] -0.144 | epoxomicin 0.485 | [7] -0.108 | [3] -0.068 | [4] 0.09 | rosiglitazone 0.009 | [5] 0.107 | [6] 0.006

BID isoform 2 (UniProt P55957)
inactive: [1] 0.013 | volasertib -0.196 | [2] -0.022 | epoxomicin -0.036 | [3] 0.045 | [4] 0.042 | [5] -0.068 | [6] -0.048

BNIP1 (UniProt Q12981)
inactive: [1] -0.021 | volasertib -0.055 | [2] 0.004 | epoxomicin -0.02 | [7] 0.006 | [3] -0.009 | [4] 0.014 | rosiglitazone 0.043 | [5] -0.036 | [6] -0.067

BRAT1 (UniProt Q6PJG6)
inactive: [1] -0.102 | volasertib -0.097 | [2] -0.013 | epoxomicin 0.036 | [7] 0.053 | [3] -0.049 | [4] 0.035 | rosiglitazone 0.023 | [5] -0.041 | [6] -0.016

BRIP1 (UniProt Q9BX63)
inactive: [1] -0.067 | volasertib 0.008 | [2] -0.004 | epoxomicin -0.008 | [3] -0.122 | [4] -0.068 | [5] 0.041 | [6] -0.084

AVL9 (UniProt Q8NBF6)
inactive: [1] -0.05 | volasertib -0.198 | [2] 0.005 | epoxomicin 0.024 | [7] 0.005 | [3] -0.041 | [4] -0.004 | rosiglitazone 0.022 | [5] -0.066 | [6] -0.192
